Consider eight sequences from publication PMC9757077, “The B. subtilis Rok protein is an atypical H-NS-like protein irresponsive to physico-chemical cues”.

For part of these data: Negatives hold for the conditions tested. For part of these data: At least one verdict was read from the data and is not stated in words by the source. For part of these data: Tags and fusion partners may be left off the protein sequences shown. The exact form of at least one protein or probe is not confirmed.

Data set [1] concerns the target T1, Rok (Bacillus subtilis 168) (UniProt O34857).
T1 sequence (looked up): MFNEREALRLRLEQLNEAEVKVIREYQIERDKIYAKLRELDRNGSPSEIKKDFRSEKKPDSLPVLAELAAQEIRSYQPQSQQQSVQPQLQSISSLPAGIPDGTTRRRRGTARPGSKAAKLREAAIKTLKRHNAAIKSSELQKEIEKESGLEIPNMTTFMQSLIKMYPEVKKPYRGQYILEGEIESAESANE
Put plainly: bridging pull-down. The note with it: 0.27 uM Rok, TPM: 50 mM KCl, bridging: 50 mM KCl, 25 C, recombinant protein, residues 1-191, label: 32P.

Data set [2] concerns the target T1, Rok (Bacillus subtilis 168). Put plainly: MST. The note with it: MST: 10 mM Tris-HCl pH 8, 150 mM KCl, 5% glycerol, 0.05% Tween20, 0.08 mg/ml acetylated BSA, RT, 40 nM DNA, recombinant protein, residues 1-191, label: 5'-Cy5 top strand.
Data set [3] concerns the target sRok (Bacillus subtilis (plasmid pLS20)) (UniProt E9RJ31). Put plainly: MST. The note with it: MST: 10 mM Tris-HCl pH 8, 150 mM KCl, 5% glycerol, 0.05% Tween20, 0.08 mg/ml acetylated BSA, RT, 40 nM DNA, label: 5'-Cy5 top strand.
[4] abbreviates: bait N1, bridging read-out only.

Regarding “ATTTAGTCTATTCGATATATGGACTCTTAGTGGCAAATATATAATGTATAAGTTCTGGAGTAGTATGGTAATAACTATTTTATTTTCGATAGCTTGAATGTTTATTTTCCCAGAGACATTAGGTG (double strand) [125 bp prey]”, the binding result in data set [1] (bait N1) was “binds”.

By Kd is commonly meant the free concentration of one partner at which half of the binding sites on the other are occupied at equilibrium, for simple one-to-one binding. “CGGCGCAAATTCGTGACCAGTTGCATCAGCTGCGTGAGCTGTTTATCGCAGCATCGTAACAGGATAGTGAAGAAGACT (double strand) [MST aspecific 78 bp]”: the Kd in data set [2] (>25 mM MgCl2) was determined as 800 µM. Also, the binding result in data set [3] (<20 mM MgCl2, Kd only in figure, recombinant …) is on record as “binds”; in data set [3] (>=20 mM MgCl2, too weak to fit, recombinant protein), “no binding”.

“CGGCGCAAATTCGTGACCAGTTGCATCAGCTACTAGAGCTGTTTATCGCAGCATCGTAACAGGATAGTGAAGAAGACT (double strand) [MST specific 78 bp (TACTA)]”: the Kd in data set [2] (>35 mM MgCl2) was found to be 800 µM. The binding result in data set [3] (<20 mM MgCl2, Kd only in figure, no improvement over aspecific, recombinant protein) is “binds”; in data set [3] (>=20 mM MgCl2, too weak to fit, no improvement by TACTA site, recombinant protein), “no binding”.

Take “TTTCTCCAATTGATTTAGTCTATTCGATATATGGACTCTTAGTGGCAAATATATAATGTATAAGTTCTGGAGTAGTATGGTAATAACTATTTTATTTTCGATAGCTTGAATGTTTATTTTCCCAGAGACATTAGGTGGTCTTTCAAACTC (double strand) [150 bp prey]”: the binding result in data set [1] (bait N1) is “binds”.

Consider “GCAAATATATAATGTATAAGTTCTGGAGTAGTATGGTAATAACTATTTTA (double strand) [50 bp prey]”, for which the binding result in data set [1] (setting [4]) was “no binding”.

Take “TCTCTTCAAATGTTTTCTCCAATTGATTTAGTCTATTCGATATATGGACTCTTAGTGGCAAATATATAATGTATAAGTTCTGGAGTAGTATGGTAATAACTATTTTATTTTCGATAGCTTGAATGTTTATTTTCCCAGAGACATTAGGTGGTCTTTCAAACTCAATAATGTGGGT (double strand) [175 bp prey]”: the binding result in data set [1] (bait N1) is listed as “binds”.

Turning to “CTTAGTGGCAAATATATAATGTATAAGTTCTGGAGTAGTATGGTAATAACTATTTTATTTTCGATAGCTTGAATG (double strand) [75 bp prey]”, the binding result in data set [1] (setting [4]) is “no binding”.

As for “GGAGTAGTATGGTAATAACTATTTT (double strand) [25 bp prey]”, in data set [1] (setting [4]), the binding result is “no binding”.
